Measurements from PMC10111864.
These are yes or no findings as the source states them, for the method shown. In cells and extracts the contact can be indirect. Some results given as binding are weak or reduced against the parent protein; the word gives no strength. Where a sequence is shown, tags or fusion partners need not be part of it.

T1: KIF1C (endogenous, untagged) (mouse (endogenous in YUMM1.7)) (UniProt O35071)
T1 sequence: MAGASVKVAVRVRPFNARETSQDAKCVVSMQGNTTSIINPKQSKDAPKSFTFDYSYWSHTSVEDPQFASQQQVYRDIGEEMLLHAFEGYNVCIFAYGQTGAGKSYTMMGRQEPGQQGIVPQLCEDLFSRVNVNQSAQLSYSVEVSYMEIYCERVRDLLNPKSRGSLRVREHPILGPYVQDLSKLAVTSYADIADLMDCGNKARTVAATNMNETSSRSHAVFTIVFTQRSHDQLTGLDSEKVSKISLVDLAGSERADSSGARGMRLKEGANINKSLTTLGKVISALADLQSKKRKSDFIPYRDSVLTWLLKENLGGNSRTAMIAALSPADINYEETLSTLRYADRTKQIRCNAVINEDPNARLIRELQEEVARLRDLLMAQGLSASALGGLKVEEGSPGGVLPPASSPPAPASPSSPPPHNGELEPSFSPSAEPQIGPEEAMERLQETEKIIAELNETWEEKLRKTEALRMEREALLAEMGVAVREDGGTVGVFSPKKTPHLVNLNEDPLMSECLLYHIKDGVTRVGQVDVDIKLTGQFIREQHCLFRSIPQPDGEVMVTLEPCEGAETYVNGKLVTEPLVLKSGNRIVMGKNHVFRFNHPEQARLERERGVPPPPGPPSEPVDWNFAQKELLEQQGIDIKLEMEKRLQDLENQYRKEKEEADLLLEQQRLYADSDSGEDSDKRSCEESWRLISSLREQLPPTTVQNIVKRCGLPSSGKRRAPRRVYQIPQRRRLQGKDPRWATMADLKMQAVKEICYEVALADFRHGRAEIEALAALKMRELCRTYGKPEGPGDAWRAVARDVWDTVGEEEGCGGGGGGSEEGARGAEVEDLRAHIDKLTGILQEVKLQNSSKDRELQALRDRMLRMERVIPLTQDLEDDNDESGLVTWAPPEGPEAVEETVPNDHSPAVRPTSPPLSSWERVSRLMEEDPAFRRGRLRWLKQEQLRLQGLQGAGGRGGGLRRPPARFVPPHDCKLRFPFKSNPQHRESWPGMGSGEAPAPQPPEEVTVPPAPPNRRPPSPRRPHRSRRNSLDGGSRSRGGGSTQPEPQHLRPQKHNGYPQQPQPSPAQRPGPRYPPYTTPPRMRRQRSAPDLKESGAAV

T2: KIF1C:mCherry (endogenous KIF1C tagged at the C terminus with mCherry) (mouse (endogenous in YUMM1.7)) (UniProt O35071)
T2 sequence: T1 sequence

B1: ATL3 (protein, UniProt Q91YH5 1-541)
chain: MLSPQRTAAVASRGAGDAMENGKPGPVQVVLVHKEQHSFELEERALASVLLQDHIRDLDVVVVSVAGAFRKGKSFILDFMLRYLYSQKEGGHSDWLGDPEEPLTGFSWRGGSDPETTGIQIWSEVFTVKKPCGKKVAVVLMDTQGAFDSQSTVKDCATIFALSTMTSSVQIYNLSQNIQEDDLQQLQLFTEYGRLAMDEIFQKPFQTLMFLIRDWSFPYEYNYGLQGGMAFLDKRLHVKEHQHEEIQNVRNHIHSCFSDVTCFLLPHPGLQVATSPNFDGKLKDIASEFKEQLQALIPYVLNPSKLMEKEINGSKVTCRGLLEYFKAYIKIYQGEDLPHPKSMLQATAEANNLAAAASAKDIYYNNMEEICGGEKPYLSPDILEEKHLEFKQLALDHFKKIKKMGGKDFSFRYQQELEEEIKELYENFCKHNGSKNVFSTFRTPAVLFTGIAALYIASGFTGFIGLEVVAQLFNCMVGLLLIALLTWGYIRYSGQYRELGGAIDSGAAYVLEQASSHIGNSTQAAVRDAVVGRPPADKKSQ
B2: RAI14 (protein, UniProt Q9EP71 1-979)
chain: MKSLKAKFRKSDTNEWNKNDDRLLQAVENGDAEKVASLLGKKGASATKHDSEGKTAFHLAAAKGHVECLKVMVTHGVDVTAQDSSGHSALHVAAKNGHPECIRKLLQYKSPAENIDNSGKTALHYAAAQGCLQAVQLLCEHKSPINLKDLDGNIPLLVAVQNGHSEACHFLLDHGADVNSRDKNGRTALMLACETGSSNTVDALIKKGADLSLVDSLGHNALHYSKLSENAGIQNLLLSKISQDADLKTPTKPKQHDQVSKISSERSGTPKKRKAPPPPISPTQLSDVSSPRSITSTPLSGKESVFFAEAPFKAEISSIQENKDRLSDSTAGADSLLDISSEADQQDLLVLLQAKVASLTLHNKELQDKLQAKSPKDKEAEADLSFQSFHSTQTDLAPSPGKASDIPSSDAKSSPPVEHPAGTSTTDNDVIIRQLQDSLHDLQKRLESSEAEKKQLQDELQSQRTDTLCLNNTEISENGSDLSQKLKETQSKYEEAMKEVLSVQKQMKLGLLSQESADGYSHLREAPADEDIDTLKQDLQKAVEESARNKERVRELETKLAEKEQAEATKPPAEACEELRSSYCSVIENMNKEKAFLFEKYQQAQEEIMKLKDTLKSQMPQEAPDDSGDMKEAMNRMIDELNKQVSELSQLYREAQAELEDYRKRKSLEDAAEYIHKAEHERLMHVSNLSRAKSEEALSEMKSQYSKVLNELTQLKQLVDAHKENSVSITEHLQVITTLRTTAKEMEEKISALTGHLANKEAEVAKLEKQLAEEKAAVSDAMVPKSSYEKLQASLESEVNALATKLKESVREREKAHSEVAQVRSEVSQARREKDNIQTLLKAKEQEVTALVQKFQRAQEELAGMRRCSETSSKLEEDKDEKINEMTREVLKLKEALNSLSQLSYSTSSSKRQSQQLDLLQQQVKQLQNQLAECKKHHQEVISVYRMHLLYAVQGQMDEDVQKVLKQILTMCKNQSQKK
B3: FLII (protein, UniProt Q9JJ28 1-1271)
chain: MEATGVLPFVRGVDLSGNDFKGGYFPENVKAMTSLRWLKLNRTGLCYLPEELAALQKLEHLSVSHNHLTTLHGELSSLPSLRAIVARANSLKNSGVPDDIFKLDDLSVLDLSHNQLTECPRELENAKNMLVLNLSHNGIDSIPNQLFINLTDLLYLDLSENRLESLPPQMRRLVHLQTLVLNGNPLLHAQLRQLPAMMALQTLHLRNTQRTQSNLPTSLEGLSNLSDVDLSCNDLTRVPECLYTLPSLRRLNLSSNQIAELSLCIDQWVHLETLNLSRNQLTSLPSAICKLTKLKKLYLNSNKLDFDGLPSGIGKLTSLEEFMAANNNLELIPESLCRCPKLKKLVLNKNRLVTLPEAIHFLTEIQVLDVRENPSLVMPPKPADRTAEWYNIDFSLQNQLRLAGASPATVAAAAAVGSGSKDPLARKMRLRRRKDSAQDVQAKQVLKGMSDVAQEKNKNQEESIDARAPGGKVRRWDQGLEKPRLDYSEFFTEDVGQLPGLTIWQIENFVPVLVEEAFHGKFYEADCYIVLKTFLDDSGSLNWEIYYWIGGEATLDKKACSAIHAVNLRNYLGAECRTVREEMGDESEEFLQVFDNDISYIEGGTASGFYTVEDTHYVTRMYRVYGKKNIKLEPVPLKGSSLDPRFVFLLDQGLDIYVWRGAQATLSNTTKARLFAEKINKNERKGKAEITLLVQGQEPPGFWDVLGGEPSEIKNHVPDDFWPPQPKLYKVGLGLGYLELPQINYKLSVEHKKRPKVELMPGMRLLQSLLDTRCVYILDCWSDVFIWLGRKSPRLVRAAALKLGQELCGMLHRPRHTVVSRSLEGTEAQVFKAKFKNWDDVLTVDYTRNAEAVLQGQGLSGKVKRDTEKTDQMKADLTALFLPRQPPMPLAEAEQLMEEWNEDLDGMEGFVLEGRKFTRLPEEEFGHFYTQDCYVFLCRYWVPVEYEEEEKTEDKEGKASAEAREGEEAAAEAEEKQPEEDFQCIVYFWQGREASNMGWLTFTFSLQKKFESLFPGKLEVVRMTQQQENPKFLSHFKRKFIIHRGKRKVTQGTLQPTLYQIRTNGSALCTRCIQINTDSSLLNSEFCFILKVPFESEDNQGIVYAWVGRASDPDEAKLAEDILNTMFDASYSKQVINEGEEPENFFWVGIGAQKPYDDDAEYMKHTRLFRCSNEKGYFAVTEKCSDFCQDDLADDDIMLLDNGQEVYMWVGTQTSQVEIKLSLKACQVYIQHTRSKEHERPRRLRLVRKGNEQRAFTRCFHAWSTFRQAPA
B4: KIF1C (endogenous, untagged) (protein, UniProt O35071 1-1100)
chain: T1 sequence

Experiments:
[1] = target: T1, KIF1C (endogenous, untagged) (mouse (endogenous in YUMM1.7)); experiment: co-IP; α-KIF1C antibody (2 μg), protein G Dynabeads, lysates of untagged Kif1c+/+ and Kif1c ΔGA1,2 YUMM1.7 cells (3-4 mg total protein), Western blot; washes 50 mM Tris pH 7.4, 150 mM NaCl, 0.02% NP-40
[2] = target: T1, KIF1C (endogenous, untagged) (mouse (endogenous in YUMM1.7)); experiment: co-IP; α-KIF1C antibody, protein G Dynabeads, lysate of untagged Kif1c+/+ YUMM1.7 cells only (Kif1c mRNA properly localized), Western blot
[3] = target: T2, KIF1C:mCherry (endogenous KIF1C tagged at the C terminus with mCherry) (mouse (endogenous in YUMM1.7)); experiment: co-IP; α-mCherry antibody (10 μg, Invitrogen 16D7), protein G Dynabeads, lysates of KIF1C:mCherry-tagged YUMM1.7 cell lines (+/+ and ΔGA1,2), Western blot; washes 50 mM Tris pH 7.4, 150 mM NaCl, 0.02% NP-40
[4] = target: T2, KIF1C:mCherry (endogenous KIF1C tagged at the C terminus with mCherry) (mouse (endogenous in YUMM1.7)); experiment: co-IP; α-mCherry antibody, protein G Dynabeads, lysate of KIF1C:mCherry +/+ YUMM1.7 cells only (Kif1c mRNA properly localized), Western blot

Binder | binding [1] | binding [2] | binding [3] | binding [4]
B1 | binds | binds weakly | binds | binds weakly
B2 | binds |  | binds | 
B3 | binds |  | binds | 
B4 |  |  | binds | 
